# Results reported in the supplement of paper PMC8728848.
# This is one part of the list.
# B1: RbmA (Vibrio cholerae), A0A2H4NFB8 (protein)
# chain: MSNFKGSIMNKRHYYLASCLALLFSTASYAEVDCELQPVIEANLSLNQNQLASNGGYISSQLGIRNESCETVKFKYWLSIKGPEGIYFPAKAVVGVDTAQQESDALTDGRMLNVTRGFWVPEYMADGKYTVSLQVVAENGEVFKANQEFVKGGDLNSLPELNGLTIDIKNQFGINSVESTGGFVPFTIDLNNGREGEAKVEFWMTAVGPDGLIIPVHSREKWMIIAGNTFSKVRGINFDKSYPAGEYTINAQVVDIVSGERVEQLMTVVKK
# How the values were obtained:
# Test in all cases: glycan array binding signal (z-score within array); higher = stronger binding
# Conditions in all cases: glycan notation: IUPAC condensed, linker removed
# [1] = molecular target: GlcNAc(b1-3)Gal(b1-4)GlcNAc(b1-3)Gal(b1-4)GlcNAc(b1-2)Man(a1-3)[GlcNAc(b1-3)Gal(b1-4)GlcNAc(b1-3)Gal(b1-4)GlcNAc(b1-2)Man(a1-6)]Man(b1-4)GlcNAc(b1-4)GlcNAc
# How it was run: (§1)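 The binding signal is a Z-score computed within each array. Data were drawn from 3228 arrays in the Consortium for Functional Glycomics database, restricted to those with a known protein sequence. Scores were averaged over arrays of the same protein sequence at different concentrations or buffers, and over linkers, and negative values can be taken as non-binding.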
# [2] = molecular target: GlcNAc(b1-3)Gal(b1-4)GlcNAc(b1-3)Gal(b1-4)GlcNAc(b1-2)Man(a1-3)[GlcNAc(b1-3)Gal(b1-4)GlcNAc(b1-3)Gal(b1-4)GlcNAc(b1-2)Man(a1-6)]Man(b1-4)GlcNAc(b1-4)[Fuc(a1-6)]GlcNAc
# How it was run: as §1
# [3] = molecular target: GlcNAc(b1-3)Gal(b1-4)GlcNAc(b1-3)Gal(b1-4)GlcNAc(b1-2)[GlcNAc(b1-3)Gal(b1-4)GlcNAc(b1-3)Gal(b1-4)GlcNAc(b1-6)]Man(a1-6)[GlcNAc(b1-3)Gal(b1-4)GlcNAc(b1-3)Gal(b1-4)GlcNAc(b1-2)Man(a1-3)]Man(b1-4)GlcNAc(b1-4)[Fuc(a1-6)]GlcNAc
# How it was run: as §1
# [4] = molecular target: GlcNAc(b1-3)Gal(b1-4)GlcNAc(b1-3)Gal(b1-4)GlcNAc(b1-3)Gal(b1-4)GlcNAc(b1-2)Man(a1-3)[GlcNAc(b1-3)Gal(b1-4)GlcNAc(b1-3)Gal(b1-4)GlcNAc(b1-3)Gal(b1-4)GlcNAc(b1-2)Man(a1-6)]Man(b1-4)GlcNAc(b1-4)GlcNAc
# How it was run: as §1
# [5] = molecular target: GlcNAc(b1-3)Gal(b1-4)GlcNAc(b1-3)Gal(b1-4)GlcNAc(b1-3)Gal(b1-4)GlcNAc(b1-2)Man(a1-3)[GlcNAc(b1-3)Gal(b1-4)GlcNAc(b1-3)Gal(b1-4)GlcNAc(b1-3)Gal(b1-4)GlcNAc(b1-2)Man(a1-6)]Man(b1-4)GlcNAc(b1-4)[Fuc(a1-6)]GlcNAc
# How it was run: as §1
# [6] = molecular target: GlcNAc(b1-3)Gal(b1-4)GlcNAc(b1-3)Gal(b1-4)GlcNAc(b1-3)Gal(b1-4)GlcNAc(b1-2)[GlcNAc(b1-3)Gal(b1-4)GlcNAc(b1-3)Gal(b1-4)GlcNAc(b1-3)Gal(b1-4)GlcNAc(b1-6)]Man(a1-6)[GlcNAc(b1-3)Gal(b1-4)GlcNAc(b1-3)Gal(b1-4)GlcNAc(b1-3)Gal(b1-4)GlcNAc(b1-2)Man(a1-3)]Man(b1-4)GlcNAc(b1-4)[Fuc(a1-6)]GlcNAc
# How it was run: as §1
# [7] = molecular target: GlcNAc(b1-3)Gal(b1-4)GlcNAc(b1-3)Gal(b1-4)GlcNAc(b1-3)Gal(b1-4)GlcNAc(b1-3)Gal(b1-4)GlcNAc(b1-2)Man(a1-3)[GlcNAc(b1-3)Gal(b1-4)GlcNAc(b1-3)Gal(b1-4)GlcNAc(b1-3)Gal(b1-4)GlcNAc(b1-3)Gal(b1-4)GlcNAc(b1-2)Man(a1-6)]Man(b1-4)GlcNAc(b1-4)GlcNAc
# How it was run: as §1
# [8] = molecular target: GlcNAc(b1-3)Gal(b1-4)GlcNAc(b1-3)Gal(b1-4)GlcNAc(b1-3)Gal(b1-4)GlcNAc(b1-3)Gal(b1-4)GlcNAc(b1-2)Man(a1-3)[GlcNAc(b1-3)Gal(b1-4)GlcNAc(b1-3)Gal(b1-4)GlcNAc(b1-3)Gal(b1-4)GlcNAc(b1-3)Gal(b1-4)GlcNAc(b1-2)Man(a1-6)]Man(b1-4)GlcNAc(b1-4)[Fuc(a1-6)]GlcNAc
# How it was run: as §1
# [9] = molecular target: GlcNAc(b1-3)Gal(b1-4)GlcNAc(b1-3)Gal(b1-4)GlcNAc(b1-3)Gal(b1-4)GlcNAc(b1-3)Gal(b1-4)GlcNAc(b1-2)[GlcNAc(b1-3)Gal(b1-4)GlcNAc(b1-3)Gal(b1-4)GlcNAc(b1-3)Gal(b1-4)GlcNAc(b1-3)Gal(b1-4)GlcNAc(b1-6)]Man(a1-6)[GlcNAc(b1-3)Gal(b1-4)GlcNAc(b1-3)Gal(b1-4)GlcNAc(b1-3)Gal(b1-4)GlcNAc(b1-3)Gal(b1-4)GlcNAc(b1-2)Man(a1-3)]Man(b1-4)GlcNAc(b1-4)[Fuc(a1-6)]GlcNAc
# How it was run: as §1
# [10] = molecular target: GlcNAc(b1-3)Gal(b1-4)GlcNAc(b1-3)Gal(b1-4)GlcNAc(b1-3)GalNAc
# How it was run: as §1
# [11] = molecular target: GlcNAc(b1-3)Gal(b1-4)GlcNAc(b1-3)GalNAc
# How it was run: as §1
# [12] = molecular target: GlcNAc(b1-3)Gal(b1-4)GlcNAc(b1-3)[GlcNAc(b1-3)Gal(b1-4)GlcNAc(b1-3)]GalNAc
# How it was run: as §1
# [13] = molecular target: GlcNAc(b1-3)Gal(b1-4)GlcNAc(b1-6)[Gal(b1-3)]GalNAc
# How it was run: as §1
# [14] = molecular target: GlcNAc(b1-3)Gal(b1-4)GlcNAc(b1-6)[GlcNAc(b1-3)Gal(b1-3)]GalNAc
# How it was run: as §1
# [15] = molecular target: GlcNAc(b1-3)Gal(b1-4)GlcNAc(b1-6)[GlcNAc(b1-3)]Gal(b1-4)GlcNAc
# How it was run: as §1
# [16] = molecular target: GlcNAc(b1-3)GalNAc
# How it was run: as §1
# [17] = molecular target: GlcNAc(b1-3)Man
# How it was run: as §1
# [18] = molecular target: GlcNAc(b1-3)[GlcNAc(b1-4)][GlcNAc(b1-6)]GlcNAc
# How it was run: as §1
# [19] = molecular target: GlcNAc(b1-3)[GlcNAc(b1-6)]Gal(b1-4)GlcNAc
# How it was run: as §1
# [20] = molecular target: GlcNAc(b1-3)[GlcNAc(b1-6)]GalNAc
# How it was run: as §1
# [21] = molecular target: GlcNAc(b1-4)Gal(b1-4)GlcNAc
# How it was run: as §1
# [22] = molecular target: GlcNAc(b1-4)GlcNAc
# How it was run: as §1
# [23] = molecular target: GlcNAc(b1-4)GlcNAc(b1-4)GlcNAc
# How it was run: as §1
# [24] = molecular target: GlcNAc(b1-4)GlcNAc(b1-4)GlcNAc(b1-4)GlcNAc(b1-4)GlcNAc
# How it was run: as §1
# [25] = molecular target: GlcNAc(b1-4)GlcNAc(b1-4)GlcNAc(b1-4)GlcNAc(b1-4)GlcNAc(b1-4)GlcNAc
# How it was run: as §1
# [26] = molecular target: GlcNAc(b1-4)[GlcNAc(b1-6)]GalNAc
# How it was run: as §1
# [27] = molecular target: GlcNAc(b1-6)Gal(b1-4)GlcNAc
# How it was run: as §1
# [28] = molecular target: GlcNAc(b1-6)GalNAc
# How it was run: as §1
# [29] = molecular target: GlcNAc3Prop(b1-4)GlcNAc
# How it was run: as §1
# [30] = molecular target: GlcNAc6S(b1-3)Gal(b1-4)GlcNAc
# How it was run: as §1
# [31] = molecular target: Kdn(a2-3)Gal(b1-3)GalNAc
# How it was run: as §1
# [32] = molecular target: Kdn(a2-3)Gal(b1-3)GlcNAc
# How it was run: as §1
# [33] = molecular target: Kdn(a2-3)Gal(b1-4)Glc
# How it was run: as §1
# [34] = molecular target: Kdn(a2-3)Gal(b1-4)GlcNAc
# How it was run: as §1
# [35] = molecular target: Kdn(a2-3)Gal(b1-4)[Fuc(a1-3)]GlcNAc
# How it was run: as §1
# [36] = molecular target: Kdn(a2-6)Gal(b1-4)GlcNAc
# How it was run: as §1
# [37] = molecular target: Man(a1-2)Man(a1-2)Man(a1-3)Man
# How it was run: as §1
# [38] = molecular target: Man(a1-2)Man(a1-2)Man(a1-6)[Man(a1-3)]Man
# How it was run: as §1
binder,measurement,setting,value
B1,glycan array binding signal (z-score),[1],0.119
same,glycan array binding signal (z-score),[2],0.5
same,glycan array binding signal (z-score),[3],-0.798
same,glycan array binding signal (z-score),[4],-0.754
same,glycan array binding signal (z-score),[5],3.92
same,glycan array binding signal (z-score),[6],0.187
same,glycan array binding signal (z-score),[7],-0.195
same,glycan array binding signal (z-score),[8],2.9
same,glycan array binding signal (z-score),[9],0.175
same,glycan array binding signal (z-score),[10],-0.127
same,glycan array binding signal (z-score),[11],-0.49
same,glycan array binding signal (z-score),[12],-0.189
same,glycan array binding signal (z-score),[13],0.228
same,glycan array binding signal (z-score),[14],-0.475
same,glycan array binding signal (z-score),[15],-0.585
same,glycan array binding signal (z-score),[16],0.312
same,glycan array binding signal (z-score),[17],0.188
same,glycan array binding signal (z-score),[18],0.095
same,glycan array binding signal (z-score),[19],0.022
same,glycan array binding signal (z-score),[20],-1.02
same,glycan array binding signal (z-score),[21],-1.05
same,glycan array binding signal (z-score),[22],0.102
same,glycan array binding signal (z-score),[23],-0.204
same,glycan array binding signal (z-score),[24],-0.707
same,glycan array binding signal (z-score),[25],0.006
same,glycan array binding signal (z-score),[26],-0.538
same,glycan array binding signal (z-score),[27],2.71
same,glycan array binding signal (z-score),[28],-0.287
same,glycan array binding signal (z-score),[29],-0.321
same,glycan array binding signal (z-score),[30],0.755
same,glycan array binding signal (z-score),[31],1.16
same,glycan array binding signal (z-score),[32],-0.742
same,glycan array binding signal (z-score),[33],-0.228
same,glycan array binding signal (z-score),[34],-0.594
same,glycan array binding signal (z-score),[35],-0.555
same,glycan array binding signal (z-score),[36],0.808
same,glycan array binding signal (z-score),[37],-0.772
same,glycan array binding signal (z-score),[38],-0.553

# Retrieved one by one from above:
binder,measurement,setting,value
B1,glycan array binding signal (z-score),[3],-0.798
same,glycan array binding signal (z-score),[16],0.312
